Laboratory results: patent US20240173419A1, “CDK2 DEGRADERS AND USES THEREOF” (Kymera Therapeutics, Inc., priority 2022, published 2024)
Structures were worked out from names or drawings and are uncertain.

Biological target: CDK2 (Homo sapiens, UniProt P24941)
Experiment: CDK2 degradation in MKN1 cells (AlphaLISA)
Details: for DC50: read-out: CDK2 degradation 14 h: Mean external-Abs DC50, 14 h incubation
Procedure: Degradation of CDK2 in MKN1 cells was measured using AlphaLISA technology (PerkinElmer ALSU-TCDK2-A10K). MKN1 cells were maintained in RPMI1640 medium containing 10% FBS+1× penn/strep. Cells were seeded in 96-well plates (Corning 3599) at a density of 2e4 cells per well in 80 μL of fresh complete growth medium. Cells were incubated overnight at 37° C., 5% CO2. Compounds were then added to the cell assay plates with a final top concentration of 10 μM in a 1:5 dilution series with a total of 11 doses (0.001 nM-10 μM). The final volume per well was 160 μL and the final DMSO concentration was 0.1%. Additionally, wells containing no cells and only complete growth medium were also maintained on the cell assay plates (‘no cell’ wells) and processed along with experimental wells. After 14 hour-incubation at 37° C., 5% CO2, the medium was removed and the cells were washed once with 100 μL of 1×PBS. Following removal of PBS, 40 μL of 1× Lysis Buffer containing 1× protease and phosphatase inhibitors (Roche 4693116001; Roche 4906837001) were added to each well. The cell assay plate was agitated on a plate shaker at 350 rpm for 10 minutes at room temperature. 10 μL of each cell lysate were transferred to a 384-well plate (PerkinElmer 6007290). 10 μL of control lysates (from PerkinElmer ALSU-TCDK2-A10K kit) were added to separate wells to generate a standard curve. Activation Buffer was prepared by diluting 25-fold in combined Reaction Buffer 1 and Reaction Buffer 2. Acceptor Beads were diluted 50-fold in combined Reaction Buffers. 5 μL of Acceptor Mix were added to each well. The plate was sealed with Topseal-Aadhesive film, covered with foil, and incubated in the dark for 1 hour at room temperature. Under subdued light, the Donor Beads were diluted 50-fold in Dilution Buffer. […] Under subdued light, the plates were analyzed on an EnVision Microplate Reader (PerkinElmer Model 2009-0030). […] The data were analyzed using Xlfit (v5.3. 1.3) and the dose-dependent CDK2 degradation data were fit using a four-parameter logistic model to calculate DC50.

| Structure (SMILES) | DC50 [nM] | CDK2 degradation 14 h: Average Dmax % (14 h incubation) |
| --- | --- | --- |
| Cc1cc(S(=O)(=O)C2CCN(CCC3CCN(c4cccc5c4n(C)c(=O)n5C4CCC(=O)NC4=O)CC3)CC2)ccc1Nc1ncc(C(F)(F)F)c(-c2cnn(C)c2)n1 (stereo not drawn) | < 100 |  |
| Cc1cc(S(=O)(=O)C2CCN(CCC3CCN(c4cccc5c4n(C)c(=O)n5C4CCC(=O)NC4=O)CC3)CC2)ccc1Nc1ncc2cc(Cl)c(=O)n(C3CCCC3)c2n1 (stereo not drawn) | < 100 | A (A (>75% o)) |
